Values of other authors as cited in patent publication US6375990B1, “Method and devices for transdermal delivery of lithium” (Emory University, priority 1997, dated 2002).
At least one compound was matched to its structure with a doubt left.

Settings: in vivo

## [Li+] [Li^+, Lithium]
  therapeutic index (ratio between toxic and therapeutic Li+ concentrations): 2 or 3 factor
